Data on 2 molecules can be found in article doi:10.1101/2020.12.08.415711.

Chains of the proteins cited; added tags and fusions are not shown.
UniProt Q9SXA1: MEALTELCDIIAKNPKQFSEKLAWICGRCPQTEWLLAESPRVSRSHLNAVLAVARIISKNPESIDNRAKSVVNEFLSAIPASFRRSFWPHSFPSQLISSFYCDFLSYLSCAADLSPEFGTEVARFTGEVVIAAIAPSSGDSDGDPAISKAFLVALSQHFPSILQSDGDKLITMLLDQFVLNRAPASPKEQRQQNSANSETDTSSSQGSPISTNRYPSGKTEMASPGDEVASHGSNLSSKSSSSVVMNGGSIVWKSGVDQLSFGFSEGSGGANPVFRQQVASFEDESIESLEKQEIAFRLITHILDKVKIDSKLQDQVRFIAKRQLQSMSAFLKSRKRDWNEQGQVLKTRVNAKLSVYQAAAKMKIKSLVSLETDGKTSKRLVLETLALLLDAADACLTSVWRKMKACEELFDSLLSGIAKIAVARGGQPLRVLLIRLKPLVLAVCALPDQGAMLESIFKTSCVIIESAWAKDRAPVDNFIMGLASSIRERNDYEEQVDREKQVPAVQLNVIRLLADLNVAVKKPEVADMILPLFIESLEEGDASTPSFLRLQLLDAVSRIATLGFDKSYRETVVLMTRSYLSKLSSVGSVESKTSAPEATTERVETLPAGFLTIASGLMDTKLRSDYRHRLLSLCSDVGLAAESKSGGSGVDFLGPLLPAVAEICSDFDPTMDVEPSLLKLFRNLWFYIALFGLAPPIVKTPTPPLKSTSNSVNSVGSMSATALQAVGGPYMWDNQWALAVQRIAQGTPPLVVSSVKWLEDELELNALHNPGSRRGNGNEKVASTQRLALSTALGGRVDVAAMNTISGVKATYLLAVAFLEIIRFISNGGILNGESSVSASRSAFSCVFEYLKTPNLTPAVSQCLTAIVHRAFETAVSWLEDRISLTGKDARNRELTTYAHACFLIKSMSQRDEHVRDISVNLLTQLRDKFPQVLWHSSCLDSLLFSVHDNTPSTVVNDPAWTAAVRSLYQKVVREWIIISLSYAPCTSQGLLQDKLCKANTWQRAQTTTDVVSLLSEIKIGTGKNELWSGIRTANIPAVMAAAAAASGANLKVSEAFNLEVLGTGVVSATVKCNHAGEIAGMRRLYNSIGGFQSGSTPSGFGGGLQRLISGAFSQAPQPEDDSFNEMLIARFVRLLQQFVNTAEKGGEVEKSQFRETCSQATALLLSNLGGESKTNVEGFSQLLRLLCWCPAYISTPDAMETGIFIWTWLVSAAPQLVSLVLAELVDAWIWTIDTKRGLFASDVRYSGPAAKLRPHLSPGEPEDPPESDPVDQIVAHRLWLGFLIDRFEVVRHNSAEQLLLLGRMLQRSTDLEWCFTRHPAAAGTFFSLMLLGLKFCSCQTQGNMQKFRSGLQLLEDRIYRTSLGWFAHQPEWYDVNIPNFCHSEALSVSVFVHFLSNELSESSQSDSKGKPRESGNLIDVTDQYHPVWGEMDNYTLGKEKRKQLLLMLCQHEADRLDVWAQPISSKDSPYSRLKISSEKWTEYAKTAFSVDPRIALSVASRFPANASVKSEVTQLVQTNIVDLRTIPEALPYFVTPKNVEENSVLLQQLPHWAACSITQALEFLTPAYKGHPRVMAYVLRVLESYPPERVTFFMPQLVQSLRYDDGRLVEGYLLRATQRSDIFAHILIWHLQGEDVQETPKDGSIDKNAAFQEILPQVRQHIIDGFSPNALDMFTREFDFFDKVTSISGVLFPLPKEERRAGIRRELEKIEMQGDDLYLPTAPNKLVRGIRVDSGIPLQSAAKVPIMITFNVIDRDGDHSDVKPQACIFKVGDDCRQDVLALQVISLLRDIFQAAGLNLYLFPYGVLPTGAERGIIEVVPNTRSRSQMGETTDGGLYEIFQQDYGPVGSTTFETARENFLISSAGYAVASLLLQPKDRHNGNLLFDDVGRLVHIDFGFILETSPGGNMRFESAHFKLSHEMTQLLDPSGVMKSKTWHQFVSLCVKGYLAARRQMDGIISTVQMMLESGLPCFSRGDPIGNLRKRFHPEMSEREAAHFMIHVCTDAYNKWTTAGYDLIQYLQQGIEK

Holding throughout (assay): co-IP
Test [1] has as its target T1, Lti6b-mCITRINE (UniProt Q9ZNS6).
T1 sequence: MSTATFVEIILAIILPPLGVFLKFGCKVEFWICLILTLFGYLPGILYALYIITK

Test [2] deals with T2, NPGR2-mCITRINE (Arabidopsis thaliana) (UniProt Q66GN3).
T2 sequence: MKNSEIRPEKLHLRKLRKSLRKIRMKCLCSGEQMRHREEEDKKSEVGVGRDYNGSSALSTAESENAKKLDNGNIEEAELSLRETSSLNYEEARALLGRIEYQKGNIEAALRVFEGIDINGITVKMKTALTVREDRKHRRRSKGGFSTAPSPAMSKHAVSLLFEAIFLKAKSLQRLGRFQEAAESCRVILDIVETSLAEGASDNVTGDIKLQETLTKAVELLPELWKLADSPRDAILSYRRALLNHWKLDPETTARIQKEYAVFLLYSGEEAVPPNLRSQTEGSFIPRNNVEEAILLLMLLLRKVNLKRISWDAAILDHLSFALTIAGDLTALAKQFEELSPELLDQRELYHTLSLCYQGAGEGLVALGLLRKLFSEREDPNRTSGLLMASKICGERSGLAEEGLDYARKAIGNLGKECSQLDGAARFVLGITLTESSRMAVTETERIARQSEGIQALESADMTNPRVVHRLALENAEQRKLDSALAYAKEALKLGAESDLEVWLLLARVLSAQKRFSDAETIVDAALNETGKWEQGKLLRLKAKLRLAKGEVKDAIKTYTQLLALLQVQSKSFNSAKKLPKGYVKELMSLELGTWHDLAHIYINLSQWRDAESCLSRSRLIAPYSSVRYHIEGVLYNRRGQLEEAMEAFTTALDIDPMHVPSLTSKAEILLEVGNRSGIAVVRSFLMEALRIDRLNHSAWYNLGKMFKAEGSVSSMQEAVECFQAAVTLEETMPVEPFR

Test [3] concerns the target T1, Lti6b-mCITRINE. This is another data set of the same source.

Where two headings read alike, the source gives them in different places. Results are given in words; binding and its absence hold for the method and conditions named. In cells and extracts the contact can be indirect. Some entries that bind do so weakly or less than the wild type.

“PI4Kα1, endogenous (from UniProt Q9SXA1 1-2028) (enzyme)”: the figures for the binding entry (in the test with Lti6b-mCITRINE [1]; in test [2]) were “no binding” and “binds”, respectively.

B1: NPGR2, endogenous (protein, UniProt Q66GN3 1-739)
chain: MKNSEIRPEKLHLRKLRKSLRKIRMKCLCSGEQMRHREEEDKKSEVGVGRDYNGSSALSTAESENAKKLDNGNIEEAELSLRETSSLNYEEARALLGRIEYQKGNIEAALRVFEGIDINGITVKMKTALTVREDRKHRRRSKGGFSTAPSPAMSKHAVSLLFEAIFLKAKSLQRLGRFQEAAESCRVILDIVETSLAEGASDNVTGDIKLQETLTKAVELLPELWKLADSPRDAILSYRRALLNHWKLDPETTARIQKEYAVFLLYSGEEAVPPNLRSQTEGSFIPRNNVEEAILLLMLLLRKVNLKRISWDAAILDHLSFALTIAGDLTALAKQFEELSPELLDQRELYHTLSLCYQGAGEGLVALGLLRKLFSEREDPNRTSGLLMASKICGERSGLAEEGLDYARKAIGNLGKECSQLDGAARFVLGITLTESSRMAVTETERIARQSEGIQALESADMTNPRVVHRLALENAEQRKLDSALAYAKEALKLGAESDLEVWLLLARVLSAQKRFSDAETIVDAALNETGKWEQGKLLRLKAKLRLAKGEVKDAIKTYTQLLALLQVQSKSFNSAKKLPKGYVKELMSLELGTWHDLAHIYINLSQWRDAESCLSRSRLIAPYSSVRYHIEGVLYNRRGQLEEAMEAFTTALDIDPMHVPSLTSKAEILLEVGNRSGIAVVRSFLMEALRIDRLNHSAWYNLGKMFKAEGSVSSMQEAVECFQAAVTLEETMPVEPFR
Regarding B1, the binding entry with Lti6b-mCITRINE [3] was “no binding”.
